Measured values as given in publication PMC7862700.
This is a selection; strong and weak results do not stand in their true shares. At the low end of the ranking the order means little.

Amino acid sequences for entries named in this document (tags omitted). A change or cut given only in a name is not applied to a line headed by its entry.
UniProt Q01892: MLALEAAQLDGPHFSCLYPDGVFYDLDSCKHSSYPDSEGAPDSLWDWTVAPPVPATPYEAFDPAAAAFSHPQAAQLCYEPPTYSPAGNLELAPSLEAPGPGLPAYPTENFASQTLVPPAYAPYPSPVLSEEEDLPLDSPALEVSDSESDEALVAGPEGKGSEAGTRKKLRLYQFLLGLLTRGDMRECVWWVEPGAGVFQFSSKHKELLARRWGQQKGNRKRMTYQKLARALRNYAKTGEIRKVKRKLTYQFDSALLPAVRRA

Biological target: SPIB (UniProt Q01892)
Assay: DAPPL (digital affinity profiling via proximity ligation, sequencing)
Settings: 10 mM Tris-HCl pH 7.5, 50 mM NaCl, 1 mM DTT, 4% glycerol, room temperature, 30 min; GST-TFs on glutathione beads, 16-mer random dsDNA library, 0.1% …; high values mean tight binding; double strand, one strand shown; scale: fold enrichment (6-mer frequency, TF over GST control)

Sequence | binding signal
CTGGAC | 1.05
ACGTTA | 1.06
CCGGCA | 1.53
CCTGAT | 1.6
ATCTGT | 1.14
ACTTTC | 1.7
ATGTCC | 1.55
GAATTT | 1.28
TTTATA | 1.33
ATGATT | 1.22
TATGGC | 1.18
GAACCA | 0.985
TGGCTA | 1.31
TATAAC | 1.39
CCCGCA | 1.29
GCCTTC | 1.54
TAACCC | 1.21
GCTACC | 1.28
TGGCCT | 1.48
CAAATA | 1.19
CAATCC | 1.2
CTTGGT | 1.57
TTATAC | 1.43

Another view of part of the listing above.

| Sequence | binding signal |
| --- | --- |
| TATGGC | 1.18 |
| GAACCA | 0.985 |
